Read-outs that look alike come from different tables or passages of the source.
B1: wild type LovD: A. terreus LovD acyltransferase polypeptide, SEQ ID NO: 1 (protein, listed as Aspergillus terreus)
chain: MGSIIDAAAAADPVVLMETAFRKAVKSRQIPGAVIMARDCSGNLNYTRCFGARTVRRDECNQLPPLQVDTPCRLASATKLLTTIMALQCMERGLVDLDETVDRLLPDLSAMPVLEGFDDAGNARLRERRGKITLRHLLTHTSGLSYVFLHPLLREYMAQGHLQSAEKFGIQSRLAPPAVNDPGAEWIYGANLDWAGKLVERATGLDLEQYLQENICAPLGITDMTFKLQQRPDMLARRADQTHRNSADGRLRYDDSVYFRADGEECFGGQGVFSGPGSYMKVLHSLLKRDGLLLQPQTVDLMFQPALEPRLEEQMNQHMDASPHINYGGPMPMVLRRSFGLGGIIALEDLDGENWRRKGSLTFGGGPNIVWQIDPKAGLCTLAFFQLEPWNDPVCRDLTRTFEHAIYAQYQQG
LovD Concentration (F1 fed-batch high density): 1500 mg/L
LovD Concentration (F1 low density): 34 mg/L
LovD Concentration (LB low density): 96 mg/L
LovD Concentration (TB high density): 980 mg/L

— US10689628B2, “Method of making variant LovD polypeptides” (THE REGENTS OF THE UNIVERSITY OF CALIFORNIA, priority 2009, dated 2020)
